Source: patent US20070259952A1 (H. LUNDBECK A/S, priority 2006, published 2007)
At least one structure is not confirmed: it was looked up by name or label, or the drawing left a doubt.

Legend:
[1] = test system: mesocorticolimbic dopaminergic neurons in the VTA; conditions: Prisco and Eposito 1995; Di Masico et al 1998; cited from earlier work
[2] = test system: patients with schizophrenia; conditions: adjunctive therapy to atypical antipsychotic treatment; Friedman et al, 2005; cited from earlier work
[3] = test system: dopamine cells in the VTA; experiment: In vivo assessment of dopamine neuron firing in rat ventral tegmental area
Method: In vivo assessment of dopamine neuron firing in rat ventral tegmental area was conducted as described by Schilstrom et al. (Neuroscience 125:957-64, 2004). Briefly, male Sprague Dawley rats (250-300 g) were anesthetized with chloral hydrate (400 mg/kg i.p.) and mounted in a stereotactic frame. Anesthesia was maintained throughout the experiment with periodical injections of chloral hydrate and body temperature was kept at 37° C. with a rectal thermometer connected to an electrical heating pad. Recording electrodes were pulled in a Narishige vertical puller from borosilicate glass capillaries with outer and inner diameters of 1.50 and 1.17 mm, respectively, and filled with 2% Pontamine Sky Blue in 2 M NaCl. […] The rat was killed with an overdose of anesthetic, and the brain was removed and placed in 25% sucrose 10% paraformaldehyde solution. Sections of the VTA were cut ([…]) and stained with Neutral Red and the recording sites were verified by light microscopy.

[4] = test system: NMDA-induced currents in pyramidal cells of the medial prefrontal cortex; experiment: Facilitation of NMDA-induced currents in pyramidal cells of the medial prefrontal cortex in vitro (brain slices, voltage-clamp); assay type: cell-based, rat; conditions: dopamine D1 receptor antagonist applied with escitalopram; FIG. 3

SMILES | firing rate of mesocorticolimbic dopaminergic neurons in the VTA [1] | cognitive improvement [2] | effect on burst firing of dopaminergic cells in the VTA (significance) ([3]; citalopram dose series, FIG. 2) | effect on firing rate of dopamine cells in the VTA ([3]; tested doses 0-1280 μg/kg, FIG. 1) | effect on the escitalopram facilitation of NMDA-induced currents [4]
CN(C)CCCC1(c2ccc(F)cc2)OCc2cc(C#N)ccc21 (racemic) [citalopram] | slight inhibition | no significant cognitive improvement | only reaches significance at the 640 μg/kg dose | does not increase the firing rate | 
CN1CCc2cc(Cl)c(O)cc2[C@@H](c2ccccc2)C1 [SCH 23390] |  |  |  |  | reverses the effect of escitalopram
